Test results published in patent US4159979 (dated 1979).

test: general procedure: peptide synthesis; Boc-Asn-resin; Boc-Gly-resin; DCC/HONb active esters; details: coupling step

Going from “Boc-Leu-Tyr-Glu(OBzl)-Asn-Lys(Xys)-Pro-OH” to Boc-Tyr-Glu(OBzl)-Asn-Lys(Xys)-Pro-OH, the step yield rises from 88.2% to 93.4%.

First: Z-Arg(MBS)-Arg(MBS)-Pro-Tyr-Ile-Leu-Obu^t
Second: Boc-Glu(OBzl)-Asn-Lys(Xys)-Pro-OH
The step yield of the first is higher: 74.5% for the first, 69% for the second.

“Z-pGlu-Leu-Tyr-Glu(OBzl)-Asn-Lys(Xys)-Pro-OH” gave a step yield of 85.4%.
